A: 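Phenotypic screen: M. tuberculosis growth, cholesterol and DPPC medium, 4 days; the read-out is not stated. Concentration: 50 µM. The record gives no direction; compounds that gave an IC50 in retests scored well above the rest, so higher reads as more growth inhibition. Size under these conditions: about 69,000 compounds, about 370 of them at 50% or above in at least one test.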
B: 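Growth of Mycobacterium tuberculosis over 3 days (7H9 medium with glucose and tyloxapol); the read-out is not stated. Compounds at 50 µM. Higher reads as more growth inhibition (inferred: compounds with an IC50 in retests scored well above the rest). Of about 69,000 compounds tested this way, about 760 (1.1%) reached 50% or more in at least one test.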

The filed quantity is “Percent Effect” (%). How 0% and 100% were set is not recorded. Most values in the screen are low, and negative values occur. This is an unselected part of the compounds tested. Two or more numbers in one place are separate tests of the same structure; such repeats can differ widely.

{"compound": "O=CO.c1cc2nccc(CC3CCCN(Cc4c[nH]cn4)CC3)c2cn1", "stereo": "centres unmarked", "A": 3.194, "B": -5.908}
{"compound": "CCn1c(C(=O)N2CCCN(CC(N)=O)CC2)cc2ccccc21", "A": -4.426, "B": 18.76}
{"compound": "CNC(=O)c1cccnc1Oc1ccccc1", "A": -20.51, "B": -24.05}
{"compound": "Brc1ccccc1-c1nnc(CNCCn2cccn2)o1", "A": 14.7, "B": -30.86}
{"compound": "COc1ccc(C)cc1CN(Cc1nc(C)c(C)o1)C1CCN(C)C1", "stereo": "centres unmarked", "A": 17.75, "B": 29.32}
{"compound": "COC(=O)[C@@H](NC(=O)c1snnc1-c1ccc(OC)cc1)C(C)C", "A": 12.12, "B": "12.3 and 30.15"}
{"compound": "COCCN(C)C(C(=O)O)c1ccc2ccccc2c1", "stereo": "centres unmarked", "A": -10.49, "B": -6.307}
{"compound": "CC(C#N)CNC(=O)Nc1ccc(-c2ccc[nH]2)cc1", "stereo": "centres unmarked", "A": -40.18}
{"compound": "Cc1nccc(NCc2cncc3c2CCN(CCN(C)C)C3)n1", "A": 15.37, "B": 4.968}
{"compound": "Cn1ccc(C(=O)N2CCCC2c2[nH]ncc2C(N)=O)n1", "stereo": "centres unmarked", "A": -13.66, "B": 10.5}
{"compound": "COc1cccc(-n2nnc(C(=O)N3CCNC(=O)C3)c2C)c1", "A": 1.464, "B": -16.91}
{"compound": "Cc1oc(-c2ccco2)nc1CNC1CCCN(c2cccnn2)C1", "stereo": "centres unmarked", "A": 3.135, "B": -0.003113}
{"compound": "CCc1cc(=O)[nH]c(-c2ccc(NCCc3ccc(O)cc3)nc2)n1", "A": 3.713, "B": 43.22}
{"compound": "COCC1CN(Cc2cccc(C#N)c2)Cc2nccn2C1", "stereo": "centres unmarked", "A": 3.663, "B": 2.334}
{"compound": "O=C(NCCc1ccccc1)NCCN1CCC(c2cccs2)CC1", "A": 27.13, "B": 30.21}
{"compound": "O=C1CCCC2=C1C(c1ccccc1F)Nc1nonc1N2", "stereo": "centres unmarked", "A": -29.02, "B": "2.535 and -14.28"}
{"compound": "COc1ccc(C(=O)N2CCCC(n3cc(C)cn3)C2)c(F)c1", "stereo": "centres unmarked", "A": 19.42, "B": 13.45}
{"compound": "O=C(NC1=NCCS1)C1CSCN1C(=O)C1CCCC1", "stereo": "centres unmarked", "A": 17.5, "B": 1.028}
{"compound": "CC(C)(C)c1n[nH]c(C2CN(CCNC3CCCCC3)CCO2)n1", "stereo": "centres unmarked", "A": -1.952, "B": 5.055}
{"compound": "Cc1cc2n(n1)CC(CNCc1ccccc1-n1cccn1)CN2", "stereo": "centres unmarked", "A": -6.146, "B": -7.072}
{"compound": "COC(=O)CC(NC(=O)c1cc(OC)c2c(c1)OCCO2)c1cccs1", "stereo": "centres unmarked", "A": -4.28, "B": -3.134}
{"compound": "[H][C@@]12CCN(Cc3ccsc3)C[C@]1([H])[C@@H](CN1CCN(C)CC1)OC2", "A": 14.77, "B": 6.676}
{"compound": "CC(C)n1cc(CN2CCCN(C(=O)C(C)n3cncn3)CC2)cn1", "stereo": "centres unmarked", "A": -8.319, "B": "-31.9 and -9.751"}
{"compound": "CCn1ccnc1CN1CCCC(CO)(Cc2cccc(OC)c2)C1", "stereo": "centres unmarked", "A": 6.42, "B": "2.441 and -15.21"}
{"compound": "COCCC(=O)N1C[C@@H](c2cccc(OC)c2)[C@@]2(CCCCC(=O)N2)C1", "A": -0.7831, "B": -0.3425}
{"compound": "O=C(Cn1ccc2c(Cl)cccc21)N[C@@H](C(=O)O)c1ccccc1", "A": -8.665, "B": -9.03}
{"compound": "CC(C)CCN1CC2(CCN(C(=O)C3(C)CC3)CC2)OC1=O", "A": -2.122, "B": 8.801}
{"compound": "CS(=O)(=O)N1CCCC12CCCN(C(=O)c1ccc[nH]1)C2", "stereo": "centres unmarked", "A": "-2.014 and -0.6583", "B": "-1.408 and -2.437"}
{"compound": "COc1cccc(N2CCN(CC(O)c3cc(C)ccc3C)CC2)c1", "stereo": "centres unmarked", "A": -1.984, "B": "-5.173 and -42.17"}
{"compound": "Fc1ccc(CN2CCc3ncnc(C4CC4)c3CC2)cc1.O=C(O)C(F)(F)F", "A": 16.59, "B": 19.88}
{"compound": "[H][C@]12CC[C@]([H])(CN(C3Cc4ccccc4C3)C1)N(Cc1cc(C)no1)C2", "A": -12.78, "B": 32.41}
{"compound": "NC1CCCN(C(=O)c2csc(-c3ccc(C(F)(F)F)cc3)n2)CC1", "stereo": "centres unmarked", "A": -29.13, "B": -16.5}
{"compound": "[H][C@]12CCN(C(=O)c3cc(C)on3)CC[C@@]1([H])S(=O)(=O)N(CCC(C)C)C2", "A": -2.387, "B": -7.367}

Once more, the final 4:

For Fc1ccc(CN2CCc3ncnc(C4CC4)c3CC2)cc1.O=C(O)C(F)(F)F the result was A: 16.59%; B: 19.88%.
For [H][C@]12CC[C@]([H])(CN(C3Cc4ccccc4C3)C1)N(Cc1cc(C)no1)C2 the result was A: -12.78%; B: 32.41%.
For NC1CCCN(C(=O)c2csc(-c3ccc(C(F)(F)F)cc3)n2)CC1 (centres unmarked) the result was A: -29.13%; B: -16.5%.
For [H][C@]12CCN(C(=O)c3cc(C)on3)CC[C@@]1([H])S(=O)(=O)N(CCC(C)C)C2 the result was A: -2.387%; B: -7.367%.

Measurements from “University of Dundee, Small-Polar-MMV Screening Library” (2021), ChEMBL document CHEMBL3988442.